The assay has as its target T1, Amnionless (human (endogenous in PTECs)) (UniProt Q9BXJ7).
T1 sequence: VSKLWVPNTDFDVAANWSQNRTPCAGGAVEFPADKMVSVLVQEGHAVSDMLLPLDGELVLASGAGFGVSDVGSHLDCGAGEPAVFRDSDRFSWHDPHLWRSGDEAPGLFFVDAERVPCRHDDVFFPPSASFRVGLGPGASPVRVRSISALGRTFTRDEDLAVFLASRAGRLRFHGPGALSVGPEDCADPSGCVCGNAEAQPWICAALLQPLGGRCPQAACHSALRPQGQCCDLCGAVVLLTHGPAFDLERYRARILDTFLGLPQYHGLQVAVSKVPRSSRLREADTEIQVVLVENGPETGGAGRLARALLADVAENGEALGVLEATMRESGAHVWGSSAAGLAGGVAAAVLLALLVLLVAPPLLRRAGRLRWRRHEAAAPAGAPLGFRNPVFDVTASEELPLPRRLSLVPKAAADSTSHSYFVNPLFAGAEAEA
The assay is described as follows: co-IP; endogenously expressed STIM1, ORAI1 and AMN in PTECs, with/without thapsigargin (TG) treatment (replete or depleted Ca2+ stores); Pierce Classic IP Kit; rabbit anti-STIM1, rabbit anti-Orai1 and mouse anti-AMN antibodies.

Protein sequences, listed by entry. Tags and fused reporters are not part of them.
UniProt Q96D31: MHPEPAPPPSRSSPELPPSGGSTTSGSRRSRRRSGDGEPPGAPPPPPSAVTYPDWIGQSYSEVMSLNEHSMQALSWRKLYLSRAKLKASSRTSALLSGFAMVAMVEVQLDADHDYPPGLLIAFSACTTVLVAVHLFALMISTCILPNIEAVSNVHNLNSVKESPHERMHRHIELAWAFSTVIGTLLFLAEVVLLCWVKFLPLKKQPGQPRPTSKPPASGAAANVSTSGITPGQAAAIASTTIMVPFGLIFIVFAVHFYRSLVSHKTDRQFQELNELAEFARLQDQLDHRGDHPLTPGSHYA

Results are given in words; binding and its absence hold for the method and conditions named. In cells and extracts the contact can be indirect. Some binding calls cover weakened binding; strength is not graded here.

In the case of ORAI1 (from UniProt Q96D31 1-301), the binding entry is reported as “binds”.

These data come from PMC5714946.
